{"source": "PubChem BioAssay AID1224830 | NIAID | 2016", "aim": "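Regulators of TLR4 signalling towards TNF-alpha in macrophage-like cells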 (primary screen)", "system": "human THP-1 monocytic leukaemia cells, TNF dual-luciferase reporter clone, PMA-differentiated to macrophage-like cells", "knock-down reagent": "siRNA pool against human genes, 50 nM", "duration": "LPS for 4 h, given about 3 days after siRNA transfection", "conditions": "bacterial LPS (TLR4 ligand), 10 ng/ml", "measurement": "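Ratio of firefly to renilla light, scaled to the plate median and expressed as a robust z-score per replicate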", "reading the numbers": "TNF reporter robust z-score: higher = stronger TNF reporter response to LPS", "rule for the call": "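Each well counts as active if its z-score is over 2.8 or under -1.5; controls are left without a call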", "note": "The deposit covers about 18,000 reagents; below is an unselected part. In the full data, about 2,900 (16%) were called active. 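Calls are made per well; low scores hint the gene aids the LPS response, high scores that it dampens it.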 Unmarked entries are inactive. Repeated entries: four replicate wells of each siRNA pool. No sequences are given here."}
{"gene symbol": "ARHGAP25", "TNF reporter robust z-score": 0.21}
{"gene symbol": "ARHGAP25", "TNF reporter robust z-score": -0.34}
{"gene symbol": "ARHGAP25", "TNF reporter robust z-score": -0.85}
{"gene symbol": "ARHGAP25", "TNF reporter robust z-score": -0.31}
{"gene symbol": "STK24", "TNF reporter robust z-score": "-1.67 (active)"}
{"gene symbol": "STK24", "TNF reporter robust z-score": -0.13}
{"gene symbol": "STK24", "TNF reporter robust z-score": -0.23}
{"gene symbol": "STK24", "TNF reporter robust z-score": -0.36}

3 entries already listed, sorted by “TNF reporter robust z-score”, high to low:
{"gene symbol": "ARHGAP25", "TNF reporter robust z-score": 0.21}
{"gene symbol": "ARHGAP25", "TNF reporter robust z-score": -0.34}
{"gene symbol": "ARHGAP25", "TNF reporter robust z-score": -0.85}

The results go on.
{"gene symbol": "ZDHHC3", "TNF reporter robust z-score": 0.64}
{"gene symbol": "ZDHHC3", "TNF reporter robust z-score": 1.01}
{"gene symbol": "ZDHHC3", "TNF reporter robust z-score": 0.31}
{"gene symbol": "ZDHHC3", "TNF reporter robust z-score": 1.3}
{"gene symbol": "GET1", "TNF reporter robust z-score": -0.48}
{"gene symbol": "GET1", "TNF reporter robust z-score": -0.04}
{"gene symbol": "GET1", "TNF reporter robust z-score": -0.34}
{"gene symbol": "GET1", "TNF reporter robust z-score": -0.52}
{"gene symbol": "COL25A1", "TNF reporter robust z-score": 0.9}
{"gene symbol": "COL25A1", "TNF reporter robust z-score": 1.39}
{"gene symbol": "COL25A1", "TNF reporter robust z-score": -0.67}
{"gene symbol": "COL25A1", "TNF reporter robust z-score": -0.37}
